No constants are given. Whether binding was seen depends on the method and setting. Binding calls can cover weak binding; strength is not graded here. Tags and fused reporters may be left off the sequences shown.
Target: recombinant PfGet3-6×his (P. falciparum 3D7) (UniProt Q8I1T8)
Assay: pull-down

Binder | binding
recombinant MBP-PfGet4 (protein, UniProt Q8IL82 1-277) MKKFKFSKEKLAKEKIENGLHYEAHQLIKSIINRKLQKNQISNCISVIFYFSLKFATAEQYVLLCDLMYQCCLILTQHDIEFNLEYANKIIEIFQKCPPNSTEEKYKFMNKSILWSKSEENVYGYLEFHKVIGYAYFEDKQYSLAHNHFIYLDDNDILYEIICLWRKEAYPSESHFFVLRTILCLLVLDKFDQALNLINMFETNLNRQDVPLPIQLAYLITSSCIYKSLALYEDVKYKYRLILNYDPDFQKYINIIDAAVFNKKKHNLFSMFQNIFA | binds
recombinant MBP-PfGet2^CD (cytosolic domain of PF3D7_0215600) (domain or fragment, UniProt O96235 1-246) MDKNTLKRRSRLLQKNEARMSMLLGRNLDDEISKEKKESNKNDKHKKNDQHKKNDKSNQNGEDNQNGEDNQNDESNQNDEHKKNDEHKKNDEHNQNDEHNQNDEHNQNDEHNQNDEHNQNDEHNQNDEHNQNDEHNQNDESNQNDKNRKEIPPKEEKDKENNPSVVMENNNNIRKDQDNKTSEHKSSTNIYNKDKNNDYNKLLDKDDNNNNNKNINKNDENDFTSINNDIPNKNKITSQFIITKHE | binds
